Results are given in words; binding and its absence hold for the method and conditions named. Binding seen in cells or lysates may run through a third protein. Some results given as binding are weak or reduced against the parent protein; the word gives no strength.
Molecular target: T1, IRF3 (human (endogenous in 293T)) (UniProt Q14653)
T1 sequence: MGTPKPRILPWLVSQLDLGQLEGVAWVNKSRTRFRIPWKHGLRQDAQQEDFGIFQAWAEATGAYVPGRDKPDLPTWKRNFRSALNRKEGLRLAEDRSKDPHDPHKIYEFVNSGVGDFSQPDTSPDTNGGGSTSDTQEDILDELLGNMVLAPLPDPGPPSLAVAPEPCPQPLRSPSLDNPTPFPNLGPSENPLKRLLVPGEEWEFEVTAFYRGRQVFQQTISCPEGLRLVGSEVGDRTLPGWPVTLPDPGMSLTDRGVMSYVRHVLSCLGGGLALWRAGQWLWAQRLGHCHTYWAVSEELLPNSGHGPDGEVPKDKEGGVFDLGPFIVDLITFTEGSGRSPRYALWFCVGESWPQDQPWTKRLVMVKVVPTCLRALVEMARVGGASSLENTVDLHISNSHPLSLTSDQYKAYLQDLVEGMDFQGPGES
Assay: co-IP; endogenous co-immunoprecipitation in 293T cells, without and following SeV infection

B1: DDX56 (protein, UniProt Q9NY93 1-547)
chain: MEDSEALGFEHMGLDPRLLQAVTDLGWSRPTLIQEKAIPLALEGKDLLARARTGSGKTAAYAIPMLQLLLHRKATGPVVEQAVRGLVLVPTKELARQAQSMIQQLATYCARDVRVANVSAAEDSVSQRAVLMEKPDVVVGTPSRILSHLQQDSLKLRDSLELLVVDEADLLFSFGFEEELKSLLCHLPRIYQAFLMSATFNEDVQALKELILHNPVTLKLQESQLPGPDQLQQFQVVCETEEDKFLLLYALLKLSLIRGKSLLFVNTLERSYRLRLFLEQFSIPTCVLNGELPLRSRCHIISQFNQGFYDCVIATDAEVLGAPVKGKRRGRGPKGDKASDPEAGVARGIDFHHVSAVLNFDLPPTPEAYIHRAGRTARANNPGIVLTFVLPTEQFHLGKIEELLSGENRGPILLPYQFRMEEIEGFRYRCRDAMRSVTKQAIREARLKEIKEELLHSEKLKTYFEDNPRDLQLLRHDLPLHPAVVKPHLGHVPDYLVPPALRGLVRPHKKRKKLSSSCRKAKRAKSQNPLRSFKHKGKKFRPTAKPS
With B1 the binding was “binds”.
